The record followed here is paper PMC10163288.

B1: il10ra_site1_normal_mot_HHH_b2_00984_000000042_0001_1_20_H_._HHH_b2_01444_0001_0000200012_0000001_0 (protein)
chain: SSSSSSEAEELLQLLWEAIKNDDEELVRELIEEIEELLERTGDPNVEALLILARLARESLSSSSS
B2: il10ra_site1_normal_mot_HHH_b2_07521_000000141_0001_20_37_H_._HHH_b2_03446_0001_0000200028_0000001_0 (protein)
chain: SSSSDEEERYLELSLKFAEALLRDGDPEAARLLLKAAKDIAEKSGDEELLEEIERLLEEIGSSSS
B3: il10ra_site1_normal_mot_HHH_b2_00984_000000042_0001_1_20_H_._HHH_b1_03879_af2_0001_0000300007_0000001_0 (protein)
chain: SSSSDEEEIKRLEEELEEAVERQDVELVAEIAKRVLRLAFELRDPELLRAVWELIREFANSSSSS
B4: il10ra_site1_normal_mot_HHH_b1_06363_000000103_0001_21_38_H_._HHH_b1_06214_af2_0001_0000400025_0000002_0_af2pred_0001 (protein)
chain: SSSSSDEEEEEVEELLEKAKKIENPEEVYKLLVRAFSIAFHINNDELRELVEEVLQEFAQSSSSS
B5: il10ra_site1_sap_19_mot_HHH_b2_04186_af2_000000278_0001_1_19_H_._HHH_b1_07627_af2_0001_0000400015_0000002_0_0001 (protein)
chain: SSSSDKEERELIEAAIRLAEQLYEWGDDESARFHLWSAKQLAEELGDEELREEIEELEREISSSS
B6: il10ra_site1_sap_19_mot_HHH_b1_06789_af2_000000041_0001_1_20_H_._HHH_b2_05039_0001_0000300017_0000001_0_0001_af2pred_0001 (protein)
chain: SSSSDEAERRLFELFREASRLLREGNPEEAKKVTEELEELAEQLGDERAKRLVELLKRLNSSSSS
B7: il10ra_site1_sap_26_mot_0750aae41c39e4229e2ea8fa354cc919_0001_1_000000144_0001_37_51_H_._HHH_b1_04100_af2_0001_0000100003_0000001_0_0001 (protein)
chain: SSSSSDEEVRELVEFLEKWYRQDPDPKAKEFIEISLELLARDYNDPEVEEILEELREESSSSSSS
B8: il10ra_site1_normal_mot_HHH_b1_04065_000000255_0001_41_56_H_._HHH_b1_08168_0001_0000500034_0000001_0_af2pred_0001 (protein)
chain: SSSSSEEEELEELLRELEELAKEGDEEKFAQLFVEVSKLAWEARDEEVSKRLIELAVEFFSSSSS
B9: il10ra_site1_normal_mot_HHH_b2_06602_000000226_0001_1_16_H_._HHH_b1_03209_af2_0001_0000100006_0000002_0 (protein)
chain: SSSSSEEEEAFELLVQAYTLANQGDPEEAREVLEEALEVAERGNNRALVLAIEINLERLESSSSS
B10: il10ra_site1_sap_23_mot_HHH_b1_03333_000000091_0001_1_17_H_._HHH_b1_01665_af2_0001_0000100003_0000002_0_0001 (protein)
chain: SSSSSSEEEAERLVEEVREELERLDAEERWKLYREAAELLVELGNREAIEALIEAFIRASSSSSS
B11: il10ra_site1_normal_mot_HHH_b1_06912_af2_000000235_0001_1_15_H_._HHH_b1_07203_af2_0001_0000200016_0000002_0 (protein)
chain: SSSSSDEADRLYKLLREALELLANGNPEEAEEILEEVIKLAEELNNFVFVFAARHLERDISSSSS
B12: il10ra_site1_normal_mot_HHH_b1_04693_000000238_0001_19_36_H_._HHH_b1_00041_0001_0000200024_0000001_0 (protein)
chain: SSSQEAYEVVEKAIEEAIELLRNGNPEEAEKVVEEAIRIVEELGNDIARFQLETLLRLIQRSSSS
B13: il10ra_site1_sap_11_mot_5fda0655e6834f3f331eaa9f580e88ed_0001_af2_000000239_0001_36_50_H_._05650c620ad560ee7d778618fc3b96ad_0001_0001_0000700017_0000002_0_0001 (protein)
chain: DDIFRLQARLAARDPKVLRAISERAEEAKREGDEQHFKMFLRLLRLVVELYGDPLAEELLEELEK
B14: il10ra_site1_normal_mot_HHH_b1_00137_000000000_0001_1_19_H_._HHH_b2_06740_0001_0000300009_0000002_0_af2pred_dldesign_0_af2pred (protein)
chain: SSSDIQARLDFAGEVVVRLYDELGLTREQLEVLRDEALALVQAGLSDEEIRERLEALARRLASSS
B15: il10ra_site1_normal_mot_HHH_b1_06789_af2_000000041_0001_1_20_H_._HHH_b2_05724_af2_0001_0000400011_0000001_0_af2pred_0001 (protein)
chain: SSSSSSRKEFLKAAKRTAEILIKNGDPEEARRALEIAHLLAELLGDPILEEIEELLEELNSSSSS
B16: il10ra_site1_normal_mot_HHH_b2_00984_000000042_0001_1_20_H_._HHH_b2_04018_0001_0000100003_0000001_0 (protein)
chain: SSSSDEVEERVERLLEEAEELAERGDPEEANELLQEATQVALENNNAELLQLVWEVIKRLSSSSS
B17: il10ra_site1_sap_22_mot_HHH_b1_05357_000000034_0001_23_39_H_._HHH_b2_07159_0001_0000100004_0000001_0_0001_af2pred_0001 (protein)
chain: SSSSDERVKLTLRMAERLARHGARESVEFLLKAAEQIARRLGDEELEELIEEVEERVRELLSSSS
B18: il10ra_site1_sap_15_mot_HHH_b2_02303_af2_000000113_0001_43_56_H_._HHH_b1_07128_af2_0001_0000500025_0000001_0_0001_af2pred_0001 (protein)
chain: SSSSSDELERVRRLLRRVAQLLHEGNPEEAEELVREALEIAEELGNLALAFAARYLLKLISSSSS
B19: il10ra_site1_sap_23_mot_HHH_b1_08616_000000009_0001_1_19_H_._HHH_b2_04715_af2_0001_0000100004_0000001_0_0001_af2pred_0001 (protein)
chain: SSSSSSQEEQRIRALLFFAKFANNPEARRLALELAERLARELGNEELREEVERVEKELEESSSSS

This is one part of the list.

This assay has as its target il10ra, Q13651. As to the kind of experiment: yeast display titration.
As to B1, the “apparent Kd” value was “inactive: no binding seen”.

Consider B2, for which the “apparent Kd” value is “inactive: no binding seen”. As for B3, the entry is “inactive: no binding seen”; as for B4, “inactive: no binding seen”; as for B5, “inactive: no binding seen”. As for B6, the entry is “inactive: no binding seen”.

As for B7, the “apparent Kd” value was “inactive: no binding seen”. As for B8, the entry is “inactive: no binding seen”. As for B9, the entry is “inactive: no binding seen”; as for B10, “inactive: no binding seen”. In the case of B11 it was “inactive: no binding seen”; in that of B12, “inactive: no binding seen”; in that of B13, “inactive: no binding seen”.

With B14, the “apparent Kd” value was “inactive: no binding seen”.

For B15, the “apparent Kd” value is “inactive: no binding seen”. B16: the “apparent Kd” value is “inactive: no binding seen”.

As to B17, the “apparent Kd” value was “inactive: no binding seen”. In the case of B18 it was “inactive: no binding seen”. Turning to B19, the “apparent Kd” value is “inactive: no binding seen”.
